Values of other authors in patent publication US20050124791A1, “Ion channel” (priority 2001, published 2005).
For at least one compound, name, drawing or mass did not settle the structure.

System: adenylate cyclase from the outer segment of the bovine retina
Details: 100 pM forskolin

With `C=C[C@@]1(C)CC(=O)[C@]2(O)[C@@]3(C)[C@@H](O)CCC(C)(C)[C@@H]3[C@H](O)[C@H](OC(C)=O)[C@@]2(C)O1` [forskolin] as the compound, how does the “stimulation of the enzyme” value (enzyme in the starting material) read?
Its value is “up to three-fold”.

What about the “activation of the enzyme” value (highly purified enzyme) of the same compound?
Its value is “up to seven-fold”.
